Test [1] deals with Cullin 5 (mouse (endogenous in cultured HSPCs and bone marrow cells)) (UniProt Q9D5V5). The test can be described thus: affinity purification with mass spectrometry; anti-CUL5 antibody (4 ug/mg) or rabbit IgG isotype control, Dynabeads; lysate (1% NP-40, 100 mM NaCl, 50 mM Tris-HCl) of HSPCs expanded from WT CD34lo HSCs with TPO, SCF and IL-3, bortezomib 50 nM for 2 hours before harvest; overnight at 4°C; tandem mass spectrometry.

By UniProt entry, the sequences of proteins in these tests, tags left out. Residues count along the entry.
UniProt Q9D5V5: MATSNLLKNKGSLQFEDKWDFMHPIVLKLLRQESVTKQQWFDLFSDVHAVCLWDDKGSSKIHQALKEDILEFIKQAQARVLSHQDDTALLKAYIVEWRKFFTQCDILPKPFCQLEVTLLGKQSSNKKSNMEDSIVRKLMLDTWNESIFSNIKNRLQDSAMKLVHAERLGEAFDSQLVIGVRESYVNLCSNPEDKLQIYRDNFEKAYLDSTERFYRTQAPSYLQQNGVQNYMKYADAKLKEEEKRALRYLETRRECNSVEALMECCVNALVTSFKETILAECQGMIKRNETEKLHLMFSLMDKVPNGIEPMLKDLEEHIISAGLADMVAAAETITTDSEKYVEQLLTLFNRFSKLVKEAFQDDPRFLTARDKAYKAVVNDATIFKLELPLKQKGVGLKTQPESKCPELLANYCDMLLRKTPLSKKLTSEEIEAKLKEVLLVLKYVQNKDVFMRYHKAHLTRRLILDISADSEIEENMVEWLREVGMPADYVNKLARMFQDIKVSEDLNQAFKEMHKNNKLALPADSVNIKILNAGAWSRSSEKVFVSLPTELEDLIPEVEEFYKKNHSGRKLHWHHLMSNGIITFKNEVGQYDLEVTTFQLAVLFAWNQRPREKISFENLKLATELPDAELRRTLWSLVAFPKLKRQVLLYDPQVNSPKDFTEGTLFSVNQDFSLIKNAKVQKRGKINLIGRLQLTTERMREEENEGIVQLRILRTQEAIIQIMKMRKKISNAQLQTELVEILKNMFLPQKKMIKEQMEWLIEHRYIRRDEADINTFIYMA
UniProt Q8BHD8: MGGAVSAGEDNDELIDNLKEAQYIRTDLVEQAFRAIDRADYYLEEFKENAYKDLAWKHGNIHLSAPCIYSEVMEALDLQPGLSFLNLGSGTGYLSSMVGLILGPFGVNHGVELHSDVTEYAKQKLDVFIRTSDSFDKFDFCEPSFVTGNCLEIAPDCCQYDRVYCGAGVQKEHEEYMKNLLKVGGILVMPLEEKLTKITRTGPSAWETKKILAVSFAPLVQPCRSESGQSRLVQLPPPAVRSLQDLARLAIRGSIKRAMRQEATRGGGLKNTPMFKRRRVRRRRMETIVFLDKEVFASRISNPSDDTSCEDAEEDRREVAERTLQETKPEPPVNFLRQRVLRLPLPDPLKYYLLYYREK
UniProt P29595, residues 1-76: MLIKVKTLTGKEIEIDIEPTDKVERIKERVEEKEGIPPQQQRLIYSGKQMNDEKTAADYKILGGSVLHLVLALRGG
UniProt P62869: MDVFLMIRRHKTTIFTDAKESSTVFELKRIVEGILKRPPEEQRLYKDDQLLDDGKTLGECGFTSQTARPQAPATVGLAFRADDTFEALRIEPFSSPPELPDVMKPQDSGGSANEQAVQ

Test [2] addresses T1, LRRC41 (mouse (endogenous in cultured HSPCs and bone marrow cells)) (UniProt Q8K1C9).
T1 sequence: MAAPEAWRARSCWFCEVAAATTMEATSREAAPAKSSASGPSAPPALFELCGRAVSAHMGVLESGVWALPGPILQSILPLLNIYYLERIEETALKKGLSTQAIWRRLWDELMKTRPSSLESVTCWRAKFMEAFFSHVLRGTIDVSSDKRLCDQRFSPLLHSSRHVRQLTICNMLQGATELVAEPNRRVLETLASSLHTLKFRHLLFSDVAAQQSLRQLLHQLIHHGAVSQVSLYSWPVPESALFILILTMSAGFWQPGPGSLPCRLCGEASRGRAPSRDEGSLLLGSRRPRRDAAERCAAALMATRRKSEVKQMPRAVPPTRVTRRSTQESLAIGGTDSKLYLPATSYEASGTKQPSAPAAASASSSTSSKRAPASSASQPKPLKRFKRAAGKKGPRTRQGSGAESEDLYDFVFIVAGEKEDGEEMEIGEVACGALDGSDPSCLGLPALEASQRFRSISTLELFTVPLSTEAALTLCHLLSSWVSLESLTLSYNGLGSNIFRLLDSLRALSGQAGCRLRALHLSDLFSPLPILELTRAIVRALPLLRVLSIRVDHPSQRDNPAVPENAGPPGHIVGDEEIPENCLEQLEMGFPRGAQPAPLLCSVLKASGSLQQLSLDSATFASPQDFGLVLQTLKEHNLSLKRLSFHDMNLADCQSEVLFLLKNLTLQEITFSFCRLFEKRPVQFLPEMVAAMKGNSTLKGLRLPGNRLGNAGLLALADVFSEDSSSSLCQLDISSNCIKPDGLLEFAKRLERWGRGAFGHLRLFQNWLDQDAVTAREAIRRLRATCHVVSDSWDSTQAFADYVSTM
The test can be described thus: affinity purification with mass spectrometry; anti-LRRC41 antibody (4 ug/mg) or rabbit IgG, Dynabeads; WT bone marrow cells stimulated with IL-3 (20 ng/mL), cross-linked with disuccinimidyl dibutyric urea (1 mM, 10 minutes) before lysis; overnight at 4°C; mass spectrometry.

These results are taken from PMC12404750.

These are yes or no findings as the source states them, for the method shown. In cells and extracts the contact can be indirect. A yes stands for co-enrichment or nearness to the bait. Other partners may have been found.

For the molecule PCMTD2 (from UniProt Q8BHD8 1-359), the binding result in test [1] is on record as “binds”.
In the case of NEDD8 (from UniProt P29595 1-76), the binding entry in test [2] and in test [1] was “binds” throughout.
Consider ELOB (from UniProt P62869 1-118), for which the binding entry in test [2] is on record as “binds”.
Cullin 5 (from UniProt Q9D5V5 1-780): the binding entry in test [2] is recorded as “binds”.

B1: ASB2 (protein, UniProt Q8K0L0 1-634)
chain: MATEISTRGRQRAIGHEEYSLYSSLSEEELLQMAIEQSLADKTRGPTPAEASASSQTNHQPGHFHPWTRSPSSPENPPARAPLGLFQGVMQKYSSNLFKTSQMAAMDPVLKAIKEGDEEALKIMIQDGKNLAEPNKEGWLPLHEAAYYGQLGCLKVLQQAYPGTIDQRTLQEETALYLATCREHLDCLLSLLQAGAEPDISNKSRETPLYKACERKNAEAVRILVRYNADANHRCNRGWTALHESVSRNDLEVMEILVSGGAKVEAKNVYSITPLFVAAQSGQLEALRFLAKHGADINTQASDSASALYEASKNEHEDVVEFLLSQGADANKANKDGLLPLHVASKKGNYRIVQMLLPVTSRTRVRRSGISPLHLAAERNHDAVLEALLAARFDVNAPLAPERARLYEDRRSSALYFAVVNNNVYATELLLLAGADPNRDVISPLLVAIRHGCLRTMQLLLDHGANIDAYIATHPTAFPATIMFAMKCLSLLKFLMDLGCDGEPCFSCLYGNGPHPPAPRPGRFHDAPVDDKAPSVVQFCEFLSAPEVSRWAGPIIDVLLDYVGNVQLCSRLKEHIDSFEDWAVIKEKAEPPRPLAHLCRLRVRKAIGKYRIKLLDTLPLPGRLIRYLKYENTQ
With B1, the binding entry in test [1] is reported as “binds”.

B2: WSB1 (protein, UniProt O54927 1-421)
chain: MASFPPRVNEKEIVRSRTIGELLAPAAPFDKKCGGENWTVAFAPDGSYFAWSQGYRIVKLVPWSQCRKNFLLHGSKNVTNSSCLKLARQNSNGGQKNKPPEHVIDCGDIVWSLAFGSSVPEKQSRCVNIEWHRFRFGQDQLLLATGLNNGRIKIWDVYTGKLLLNLVDHIEMVRDLTFAPDGSLLLVSASRDKTLRVWDLKDDGNMVKVLRAHQNWVYSCAFSPDCSMLCSVGASKAVFLWNMDKYTMIRKLEGHHHDVVACDFSPDGALLATASYDTRVYVWDPHNGDLLMEFGHLFPSPTPIFAGGANDRWVRAVSFSHDGLHVASLADDKMVRFWRIDEDCPVQVAPLSNGLCCAFSTDGSVLAAGTHDGSVYFWATPRQVPSLQHICRMSIRRVMSTQEVQKLPVPSKILAFLSYRG
As for B2, in test [1], the binding result is given as “binds”.

B3: SOCS6 (protein, UniProt Q9JLY0 1-533)
chain: MKKISLKTFRKSFNLSKSKDETEFMVVQPQSLAGDFVKDDSLFGSCYGKDMASCDIGSEDEKGKNRSKSESLMGTLKRRLSAKQKTKGKGGTASTDEDTFSSASAPGGLKDVRAPRPIRSTSLRSHHYSPTPWPLRPTSSEETCIKMEMRVKALVHAASPGPVNGVRKDLRELQPRELRDLQPEPRPESRCSPSSPGDLSLHLEEHVPVVIGLMSQDYLQYTVPLDDGMCPLEGPRSCCLDTSSPMEVSAVPLPGASGAFSEDDSHVDQDLVVGPEILVDSSVNNLLIGTTGVMLQSPRGGHDDAPPLSPLLPPMQNNPIQRNFSGLSGPDLHMAESVRCHLNFDPNSAPGVARVYDSVQSSGPMVVTSLTEELKKLAKQGWYWGPITRWEAEGKLANVPDGSFLVRDSSDDRYLLSLSFRSHGKTLHTRIEHSNGRFSFYEQPDVEGHTSIVDLIEHSIRDSENGAFCYSRSRLPGSATYPVRLTNPVSRFMQVRSLQYLCRFVIRQYTRIDLIQKLPLPNKMKDYLQEKHY
For B3, the binding result in test [1] is listed as “binds”.

B4: LRRC41 (protein, UniProt Q8K1C9 1-807)
chain: T1 sequence
Consider B4, for which the binding entry in test [1] is “binds”.

B5: ASB3 (protein, UniProt Q9WV72 1-525)
chain: MDFTEAYSDTCSTVGLAAREGNVKILRKLLKKGRSVDVADNRGWMPIHEAAYHNAVECLQMLIHTDSSENYIKAKTFEGFCALHLAVSQGHWKITQILLEAGADPNETTLEETTPLFLAVESGRIDVLKLLLQHGANVNGSHSMSGWNSLHQASFQGNAETIRLLLKQGADRECQDDFGITPLFVAAQYGKLESMSILISSGANVNCQALDKATPLFIAAQEGHTKCVELLLSSGADPDLYCNEDNWQLPIHAAAQMGHTETLDLLIPRTNRACDTGPDKVSPVYSAVFGGREECLEMLLQNGYSPDAQMCLVFGFSSPLCMAFQKDCDFSGIVNILLKYGAQLNELHLAYCLKYEKFSMFCSFLKKGSLMVPWNHTSEFISYAVKAQTKYKAWLPHLLLAGFDPLILLCSSSWVDSASDDILIFTLEFSNWKRLPSAVEKMLSVRANSSWALQQHLASVPSLTHLCRLEIRASLKAEHLHSDIFIHQLPLPRSLQNYLLYEEVLRMNEILEPAANQDGETSKAT
Turning to B5, the binding entry in test [1] was “binds”.

B6: CAND1 (protein, UniProt Q6ZQ38 1-1230)
chain: MASASYHISNLLEKMTSSDKDFRFMATNDLMTELQKDSIKLDDDSERKVVKMILRLLEDKNGEVQNLAVKCLGPLVSKVKEYQVETIVDTLCTNMLSDKEQLRDISSIGLKTVIGELPPASSGSALAANVCKKITGRLTSAIAKQEDVSVQLEALDIMADMLSRQGGLLVNFHPSILTCLLPQLTSPRLAVRKRTIIALGHLVMSCGNIVFVDLIEHLLSELSKNDSMSTTRTYIQCIAAISRQAGHRIGEYLEKIIPLVVKFCNVDDDELREYCIQAFESFVRRCPKEVYPHVSTIINICLKYLTYDPNYNYDDEDEDENAMDADGGDDDDQGSDDEYSDDDDMSWKVRRAAAKCLDAVVSTRHEMLPEFYKTVSPALIARFKEREENVKADVFHAYLSLLKQTRPVQSWLCDPDAMEQGDTPLTMLQSQVPNIVKALHKQMKEKSVKTRQCCFNMLTELVNVLPGALTQHIPVLVPGIIFSLNDKSSSSNLKIDALSCLYVILCNHSPQVFHPHVQALVPPVVACVGDPFYKITSEALLVTQQLVKVIRPLDQPSSFDATPYIKDLFTCTIKRLKAADIDQEVKERAISCMGQIICNLGDNLGPDLSNTLQIFLERLKNEITRLTTVKALTLIAGSPLKIDLRPVLGEGVPILASFLRKNQRALKLGTLSALDILIKNYSDSLTAAMIDAVLDELPPLISESDMHVSQMAISFLTTLAKVYPSSLSKISGSILNELIGLVRSPLLQGGALSAMLDFFQALVVTGTNNLGYMDLLRMLTGPVYSQSTALTHKQSYYSIAKCVAALTRACPKEGPAVVGQFIQDVKNSRSTDSIRLLALLSLGEVGHHIDLSGQLELKSVILEAFSSPSEEVKSAASYALGSISVGNLPEYLPFVLQEITSQPKRQYLLLHSLKEIISSASVAGLKPYVENIWALLLKHCECAEEGTRNVVAECLGKLTLIDPETLLPRLKGYLISGSSYARSSVVTAVKFTISDHPQPIDPLLKNCIGDFLKTLEDPDLNVRRVALVTFNSAAHNKPSLIRDLLDSVLPHLYNETKVRKELIREVEMGPFKHTVDDGLDIRKAAFECMYTLLDSCLDRLDIFEFLNHVEDGLKDHYDIKMLTFLMLVRLSTLCPSAVLQRLDRLVEPLRATCTTKVKANSVKQEFEKQDELKRSAMRAVAALLTIPEAEKSPLMSEFQSQISSNPELAAIFESIQKDSSSTNLESMDTS
With B6, in test [2], the binding entry is on record as “binds”.
